Some of the results follow.
Tests used:
Test in all cases: log2 fold change, soluble protein after heating vs DMSO (PISA); higher = thermal stabilisation; K562 lysate, 10 uM; active = over 0.2 and 3.5 SD of the protein, either way, in both replicates (recomputed)
[1] = compound: CS(=O)(=O)CCNCc1ccc(-c2ccc3ncnc(Nc4ccc(OCc5cccc(F)c5)c(Cl)c4)c3c2)o1 [lapatinib]
In short: (§1)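 A 30 min treatment with 10 μM compound was applied to crude K562 extract at 1 mg/mL protein in PBS pH 7.4 with 1 mM MgCl2. Heating for 3 min spanned 48°C-58°C, after which aliquots were pooled, adjusted to 0.5% NP-40 at 4°C and spun at 21,000xg for 90 min. TMTpro 16plex LC-MS/MS of the supernatant, with channel sums equalised, gave values recorded as log-two fold change in thermal stability against solvent controls, from duplicates.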

Sequences of proteins named here, by UniProt entry; tags and fusion partners are left off. A change or cut given only in a name is not applied to a line headed by its entry.
UniProt Q9NRN7: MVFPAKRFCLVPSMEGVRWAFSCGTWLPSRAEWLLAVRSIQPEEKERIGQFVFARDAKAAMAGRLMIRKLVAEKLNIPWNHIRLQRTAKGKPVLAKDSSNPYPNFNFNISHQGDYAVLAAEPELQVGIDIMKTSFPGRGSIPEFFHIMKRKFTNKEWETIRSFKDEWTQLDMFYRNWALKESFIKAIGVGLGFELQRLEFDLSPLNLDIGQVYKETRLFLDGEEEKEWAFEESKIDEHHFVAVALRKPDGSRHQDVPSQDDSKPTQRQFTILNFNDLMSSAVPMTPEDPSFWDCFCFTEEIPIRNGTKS
UniProt Q9BWD1: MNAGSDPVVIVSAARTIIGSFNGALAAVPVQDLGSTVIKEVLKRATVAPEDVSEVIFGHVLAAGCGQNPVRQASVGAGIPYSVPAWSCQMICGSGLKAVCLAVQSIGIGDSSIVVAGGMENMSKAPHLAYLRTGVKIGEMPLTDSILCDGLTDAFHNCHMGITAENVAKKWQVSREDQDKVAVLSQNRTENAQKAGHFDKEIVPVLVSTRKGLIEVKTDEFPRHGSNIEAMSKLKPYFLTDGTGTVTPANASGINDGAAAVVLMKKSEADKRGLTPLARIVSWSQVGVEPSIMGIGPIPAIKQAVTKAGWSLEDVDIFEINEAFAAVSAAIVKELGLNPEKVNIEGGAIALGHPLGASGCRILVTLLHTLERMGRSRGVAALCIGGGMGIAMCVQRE
UniProt Q9NRK6: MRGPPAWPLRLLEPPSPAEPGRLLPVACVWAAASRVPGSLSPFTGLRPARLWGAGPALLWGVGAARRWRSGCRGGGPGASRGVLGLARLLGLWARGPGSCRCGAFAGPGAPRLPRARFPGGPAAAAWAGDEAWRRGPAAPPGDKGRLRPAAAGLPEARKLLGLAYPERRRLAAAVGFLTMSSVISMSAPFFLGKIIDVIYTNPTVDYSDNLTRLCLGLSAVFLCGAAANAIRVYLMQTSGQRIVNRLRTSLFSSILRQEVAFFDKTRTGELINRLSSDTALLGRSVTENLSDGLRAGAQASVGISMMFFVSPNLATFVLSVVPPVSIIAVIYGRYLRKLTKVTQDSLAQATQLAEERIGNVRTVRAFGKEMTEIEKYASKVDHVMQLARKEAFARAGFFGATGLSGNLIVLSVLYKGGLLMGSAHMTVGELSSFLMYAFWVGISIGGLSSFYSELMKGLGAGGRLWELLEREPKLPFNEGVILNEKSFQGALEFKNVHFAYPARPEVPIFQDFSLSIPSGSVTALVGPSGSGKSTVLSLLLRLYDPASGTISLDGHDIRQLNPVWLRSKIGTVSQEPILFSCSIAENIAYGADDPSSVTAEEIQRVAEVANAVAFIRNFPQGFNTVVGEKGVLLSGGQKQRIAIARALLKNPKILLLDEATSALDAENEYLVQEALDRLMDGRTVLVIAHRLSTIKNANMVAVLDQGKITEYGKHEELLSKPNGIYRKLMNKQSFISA
UniProt Q96QU6: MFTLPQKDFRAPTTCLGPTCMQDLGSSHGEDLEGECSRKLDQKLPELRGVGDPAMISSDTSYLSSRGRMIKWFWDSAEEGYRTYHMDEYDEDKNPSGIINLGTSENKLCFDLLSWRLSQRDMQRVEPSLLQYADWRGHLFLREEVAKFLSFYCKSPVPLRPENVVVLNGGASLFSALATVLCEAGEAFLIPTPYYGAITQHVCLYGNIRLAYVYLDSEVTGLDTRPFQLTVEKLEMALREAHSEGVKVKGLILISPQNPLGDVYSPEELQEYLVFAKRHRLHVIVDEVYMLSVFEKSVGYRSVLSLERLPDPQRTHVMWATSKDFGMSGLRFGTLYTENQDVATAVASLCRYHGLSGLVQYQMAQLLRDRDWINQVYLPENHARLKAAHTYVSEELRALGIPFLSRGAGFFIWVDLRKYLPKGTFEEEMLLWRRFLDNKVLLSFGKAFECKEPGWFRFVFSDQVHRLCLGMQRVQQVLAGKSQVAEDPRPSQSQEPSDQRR
UniProt P24752: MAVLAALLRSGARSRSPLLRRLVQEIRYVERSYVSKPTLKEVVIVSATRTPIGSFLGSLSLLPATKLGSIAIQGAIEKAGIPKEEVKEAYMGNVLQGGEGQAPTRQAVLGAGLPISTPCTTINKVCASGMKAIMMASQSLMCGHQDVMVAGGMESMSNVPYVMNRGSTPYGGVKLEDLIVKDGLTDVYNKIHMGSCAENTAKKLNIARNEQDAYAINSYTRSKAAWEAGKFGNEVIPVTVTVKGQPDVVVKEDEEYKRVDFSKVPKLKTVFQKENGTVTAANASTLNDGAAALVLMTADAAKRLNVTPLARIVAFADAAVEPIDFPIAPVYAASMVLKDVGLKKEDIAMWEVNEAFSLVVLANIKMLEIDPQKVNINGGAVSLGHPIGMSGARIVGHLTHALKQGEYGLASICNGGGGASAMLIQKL
UniProt P33527: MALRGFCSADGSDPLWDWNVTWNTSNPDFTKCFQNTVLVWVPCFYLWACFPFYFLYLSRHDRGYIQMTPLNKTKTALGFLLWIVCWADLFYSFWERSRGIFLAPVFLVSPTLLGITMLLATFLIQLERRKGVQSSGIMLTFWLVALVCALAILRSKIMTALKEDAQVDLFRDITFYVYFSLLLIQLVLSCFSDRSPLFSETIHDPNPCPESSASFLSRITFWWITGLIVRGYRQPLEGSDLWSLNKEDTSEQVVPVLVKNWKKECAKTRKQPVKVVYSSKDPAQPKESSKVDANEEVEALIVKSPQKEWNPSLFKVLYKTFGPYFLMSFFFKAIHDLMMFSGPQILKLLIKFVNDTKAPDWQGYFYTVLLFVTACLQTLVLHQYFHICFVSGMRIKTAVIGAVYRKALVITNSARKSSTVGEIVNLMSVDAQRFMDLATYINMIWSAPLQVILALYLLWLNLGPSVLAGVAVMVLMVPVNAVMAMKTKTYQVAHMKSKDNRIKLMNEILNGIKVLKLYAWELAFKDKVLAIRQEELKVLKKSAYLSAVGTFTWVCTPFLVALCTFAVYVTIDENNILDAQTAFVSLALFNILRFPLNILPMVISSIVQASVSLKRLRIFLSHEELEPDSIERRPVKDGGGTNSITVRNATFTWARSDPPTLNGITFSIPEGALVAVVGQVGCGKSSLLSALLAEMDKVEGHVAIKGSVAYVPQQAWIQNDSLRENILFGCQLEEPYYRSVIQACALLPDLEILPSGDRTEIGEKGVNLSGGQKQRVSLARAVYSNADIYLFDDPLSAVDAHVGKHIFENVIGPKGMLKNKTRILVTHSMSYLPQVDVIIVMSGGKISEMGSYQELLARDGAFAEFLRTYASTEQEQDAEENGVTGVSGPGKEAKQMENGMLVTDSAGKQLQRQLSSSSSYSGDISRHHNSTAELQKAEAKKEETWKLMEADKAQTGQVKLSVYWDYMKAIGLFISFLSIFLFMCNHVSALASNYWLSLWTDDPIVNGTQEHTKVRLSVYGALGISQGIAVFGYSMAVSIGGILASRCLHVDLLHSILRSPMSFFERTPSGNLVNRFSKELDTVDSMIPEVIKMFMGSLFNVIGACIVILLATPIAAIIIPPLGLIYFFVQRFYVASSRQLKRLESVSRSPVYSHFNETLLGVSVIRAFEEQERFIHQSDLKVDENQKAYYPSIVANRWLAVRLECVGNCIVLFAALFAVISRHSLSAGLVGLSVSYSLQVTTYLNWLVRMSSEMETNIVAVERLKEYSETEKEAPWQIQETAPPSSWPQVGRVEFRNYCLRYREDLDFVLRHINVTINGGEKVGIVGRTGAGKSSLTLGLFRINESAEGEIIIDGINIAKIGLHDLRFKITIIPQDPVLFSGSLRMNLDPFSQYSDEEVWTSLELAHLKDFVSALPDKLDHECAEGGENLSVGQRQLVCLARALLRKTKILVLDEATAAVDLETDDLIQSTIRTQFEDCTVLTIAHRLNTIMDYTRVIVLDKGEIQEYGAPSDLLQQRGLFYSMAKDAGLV
UniProt Q9Y312: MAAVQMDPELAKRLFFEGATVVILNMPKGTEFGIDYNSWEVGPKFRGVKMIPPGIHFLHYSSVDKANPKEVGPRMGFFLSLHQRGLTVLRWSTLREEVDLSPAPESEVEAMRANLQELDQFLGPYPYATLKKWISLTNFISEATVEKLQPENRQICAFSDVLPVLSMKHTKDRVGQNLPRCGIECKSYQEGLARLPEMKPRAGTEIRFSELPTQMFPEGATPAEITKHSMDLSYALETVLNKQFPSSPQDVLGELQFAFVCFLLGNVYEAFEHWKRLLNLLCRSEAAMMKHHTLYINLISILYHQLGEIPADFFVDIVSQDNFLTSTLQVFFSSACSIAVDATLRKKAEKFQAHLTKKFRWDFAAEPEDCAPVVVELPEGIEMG
UniProt Q8NFV4: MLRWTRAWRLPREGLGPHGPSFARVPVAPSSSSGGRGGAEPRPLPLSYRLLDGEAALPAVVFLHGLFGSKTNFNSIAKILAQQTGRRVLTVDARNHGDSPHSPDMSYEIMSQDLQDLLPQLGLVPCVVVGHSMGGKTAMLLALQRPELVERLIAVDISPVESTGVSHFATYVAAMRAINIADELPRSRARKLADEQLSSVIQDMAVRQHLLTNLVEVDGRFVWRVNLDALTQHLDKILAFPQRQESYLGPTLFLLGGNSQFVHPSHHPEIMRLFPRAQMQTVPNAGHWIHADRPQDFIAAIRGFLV
UniProt P49748: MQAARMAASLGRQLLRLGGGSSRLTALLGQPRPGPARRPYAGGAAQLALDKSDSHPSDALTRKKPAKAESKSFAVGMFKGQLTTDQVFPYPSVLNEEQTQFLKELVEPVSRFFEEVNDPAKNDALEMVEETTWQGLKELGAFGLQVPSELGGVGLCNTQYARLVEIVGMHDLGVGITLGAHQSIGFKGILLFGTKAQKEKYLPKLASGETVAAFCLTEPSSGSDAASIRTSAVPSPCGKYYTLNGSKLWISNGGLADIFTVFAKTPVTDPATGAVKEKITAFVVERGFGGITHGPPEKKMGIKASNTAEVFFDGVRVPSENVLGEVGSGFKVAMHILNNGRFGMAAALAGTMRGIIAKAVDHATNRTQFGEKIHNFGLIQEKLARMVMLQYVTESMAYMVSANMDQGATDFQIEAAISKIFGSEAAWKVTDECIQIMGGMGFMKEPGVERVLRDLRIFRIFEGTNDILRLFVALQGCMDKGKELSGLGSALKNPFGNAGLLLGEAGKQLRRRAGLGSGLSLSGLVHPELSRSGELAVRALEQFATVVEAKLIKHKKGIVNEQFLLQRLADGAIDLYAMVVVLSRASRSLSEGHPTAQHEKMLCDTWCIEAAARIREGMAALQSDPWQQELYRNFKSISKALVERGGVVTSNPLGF
UniProt Q9NP58: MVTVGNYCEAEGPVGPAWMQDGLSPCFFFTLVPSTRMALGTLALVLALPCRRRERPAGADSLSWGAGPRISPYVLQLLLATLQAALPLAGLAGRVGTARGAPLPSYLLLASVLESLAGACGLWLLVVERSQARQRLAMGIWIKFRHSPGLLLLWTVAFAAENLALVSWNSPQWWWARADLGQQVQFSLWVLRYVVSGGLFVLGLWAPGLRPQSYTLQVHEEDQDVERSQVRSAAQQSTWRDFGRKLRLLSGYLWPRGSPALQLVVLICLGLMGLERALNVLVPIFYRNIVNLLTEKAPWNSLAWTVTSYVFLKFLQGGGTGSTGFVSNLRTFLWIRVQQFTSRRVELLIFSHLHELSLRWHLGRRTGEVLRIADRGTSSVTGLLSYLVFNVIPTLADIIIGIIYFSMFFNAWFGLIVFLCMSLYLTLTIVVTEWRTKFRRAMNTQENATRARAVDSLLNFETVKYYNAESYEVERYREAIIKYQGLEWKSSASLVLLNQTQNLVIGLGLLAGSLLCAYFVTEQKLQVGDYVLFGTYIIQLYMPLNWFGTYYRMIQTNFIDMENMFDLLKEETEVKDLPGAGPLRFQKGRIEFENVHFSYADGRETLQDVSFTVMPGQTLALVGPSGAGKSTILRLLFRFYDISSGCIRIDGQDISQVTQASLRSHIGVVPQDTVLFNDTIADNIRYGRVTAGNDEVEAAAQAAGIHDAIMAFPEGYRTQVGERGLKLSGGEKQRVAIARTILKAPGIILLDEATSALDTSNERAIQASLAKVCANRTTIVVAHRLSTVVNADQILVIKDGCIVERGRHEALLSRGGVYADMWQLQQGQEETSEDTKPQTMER
UniProt P16219: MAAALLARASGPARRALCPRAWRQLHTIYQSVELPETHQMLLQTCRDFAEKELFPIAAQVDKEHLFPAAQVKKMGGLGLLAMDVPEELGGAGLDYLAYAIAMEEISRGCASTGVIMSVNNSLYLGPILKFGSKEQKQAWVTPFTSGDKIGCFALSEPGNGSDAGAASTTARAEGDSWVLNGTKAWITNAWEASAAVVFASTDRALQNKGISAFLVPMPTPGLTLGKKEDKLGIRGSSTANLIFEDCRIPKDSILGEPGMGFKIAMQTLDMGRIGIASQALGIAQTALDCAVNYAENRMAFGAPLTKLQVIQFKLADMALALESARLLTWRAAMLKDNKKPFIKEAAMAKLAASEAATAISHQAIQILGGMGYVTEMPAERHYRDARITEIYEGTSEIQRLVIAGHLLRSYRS

[2] = compound: CS(=O)(=O)N1CCN(Cc2cc3nc(-c4cccc5[nH]ncc45)nc(N4CCOCC4)c3s2)CC1 [pictilisib]
In short: as §1

[3] = compound: C[C@@H](Oc1cc(-c2cnn(C3CCNCC3)c2)cnc1N)c1c(Cl)ccc(F)c1Cl [crizotinib]
In short: as §1

[4] = compound: C[C@H](C1=CC=C(C=C1)C(=O)NC2=C3C=CNC3=NC=C2)N
In short: as §1

[5] = compound: C[C@H](Nc1ncnc2nc[nH]c12)c1cc2cccc(Cl)c2c(=O)n1-c1ccccc1 [duvelisib]
In short: as §1

[6] = compound: Cc1cc(Nc2cc(CN3CCOCC3)c3nc(C)c(Cc4ccc(Cl)cc4F)n3n2)n[nH]1 [gandotinib]
In short: as §1

[7] = compound: Cc1cc(Nc2cc(N3CCN(C)CC3)nc(Sc3ccc(NC(=O)C4CC4)cc3)n2)n[nH]1 [tozasertib]
In short: as §1

[8] = compound: Cc1ccc(-n2nc(C(C)(C)C)cc2NC(=O)Nc2ccc(OCCN3CCOCC3)c3ccccc23)cc1 [doramapimod]
In short: as §1

[9] = compound: Cc1ccc(NC(=O)c2ccc(CN3CC[C@H](N(C)C)C3)c(C(F)(F)F)c2)cc1Nc1nccc(-c2cncnc2)n1 [bafetinib]
In short: as §1

[10] = compound: Cc1cccc(CC(=O)N2CCc3c2ccc(-c2cn(C)c4ncnc(N)c24)c3F)n1
In short: as §1

[11] = compound: Cc1cn(-c2cc(NC(=O)c3ccc(C)c(Nc4nccc(-c5cccnc5)n4)c3)cc(C(F)(F)F)c2)cn1 [nilotinib]
In short: as §1

[12] = compound: Cc1nc(Nc2n[nH]c3c2CN(C(=O)N[C@H](CN(C)C)c2ccccc2)C3(C)C)c2sccc2n1
In short: as §1

[13] = compound: Cc1nc(Nc2ncc(C(=O)Nc3c(C)cccc3Cl)s2)cc(N2CCN(CCO)CC2)n1 [dasatinib]
In short: as §1

[14] = compound: Cc1ncc(-c2ccnc(Nc3ccc(S(C)(=O)=O)cc3)n2)n1C(C)C
In short: as §1

[15] = compound: Cn1cc(-c2ccc3c(c2)CCN3C(=O)Cc2cccc(C(F)(F)F)c2)c2c(N)ncnc21
In short: as §1

[16] = compound: Cn1cc(CNCC2CCN(c3ncc(C(=O)NO)cn3)CC2)c2ccccc21 [quisinostat]
In short: as §1

[17] = compound: Cn1cncc1[C@@](N)(c1ccc(Cl)cc1)c1ccc2c(c1)c(-c1cccc(Cl)c1)cc(=O)n2C [tipifarnib]
In short: as §1

[18] = compound: NC(=O)Nc1cc(-c2cccc(F)c2)sc1C(=O)N[C@H]1CCCNC1
In short: as §1

[19] = compound: NC(=O)c1cnc(N[C@@H]2CCCC[C@@H]2N)nc1Nc1cccc(-n2nccn2)c1
In short: as §1

[20] = compound: NC1(c2ccc(-c3nc4ccn5c(=O)[nH]nc5c4cc3-c3ccccc3)cc2)CCC1
In short: as §1

Measured: log2 fold change

AASDHPPT (UniProt Q9NRN7)
inactive: [1] -0.006 | [2] -0.013 | [3] -0.01 | [4] -0.041 | [5] 0.01 | [6] 0.013 | [7] 0.012 | [8] -0.003 | [9] 0 | [10] 0.017 | [11] 0.004 | [12] -0.028 | [13] -0.014 | [14] -0.009 | [15] 0.023 | [16] -0.001 | [17] 0.011 | [18] -0.01 | [19] -0.001 | [20] 0.016

ACAT2 (UniProt Q9BWD1)
inactive: [1] -0.031 | [2] 0.051 | [3] 0 | [4] 0.004 | [5] 0.043 | [6] 0 | [7] -0.028 | [8] -0.007 | [9] 0.037 | [10] -0.023 | [11] 0.019 | [12] -0.017 | [13] 0.026 | [14] 0.001 | [15] -0.02 | [16] 0.049 | [17] 0.013 | [18] -0.034 | [19] -0.006 | [20] 0.014

ACO1 (UniProt P21399)
inactive: [1] -0.006 | [2] -0.015 | [3] 0.038 | [4] -0.042 | [5] -0.004 | [6] -0.017 | [7] 0.037 | [8] 0.008 | [9] 0.032 | [10] -0.012 | [11] 0.005 | [12] -0.015 | [13] 0.017 | [14] -0.013 | [15] 0.026 | [16] 0.044 | [17] 0.009 | [18] -0.011 | [19] -0.002 | [20] 0.025

ABCB10 (UniProt Q9NRK6)
inactive: [1] 0.063 | [2] -0.014 | [3] -0.018 | [4] -0.033 | [5] -0.028 | [6] 0.095 | [7] -0.005 | [8] 0.033 | [9] -0.011 | [10] 0.001 | [11] -0.007 | [12] 0.029 | [13] 0.037 | [14] -0.035 | [15] 0.005 | [16] 0.02 | [17] 0.026 | [18] -0.007 | [19] -0.015 | [20] -0.006

ACCS (UniProt Q96QU6)
inactive: [1] -0.035 | [2] -0.041 | [3] -0.169 | [4] -0.209 | [5] -0.09 | [6] 0.198 | [7] -0.028 | [8] -0.037 | [9] -0.271 | [10] 0.39 | [11] -0.001 | [12] -0.06 | [13] -0.016 | [14] 0.16 | [15] -0.116 | [16] -0.22 | [17] -0.05 | [18] 0.024 | [19] 0.031 | [20] -0.098

ACAT1 (UniProt P24752)
inactive: [1] -0.024 | [2] -0.013 | [3] 0.029 | [4] -0.018 | [5] -0.016 | [6] 0.03 | [7] -0.009 | [8] -0.005 | [9] 0.026 | [10] 0.008 | [11] 0.028 | [12] -0.021 | [13] 0.015 | [14] 0.019 | [15] -0.029 | [16] -0.006 | [17] 0.044 | [18] -0.001 | [19] -0.005 | [20] 0.021

ABCC1 (UniProt P33527)
inactive: [1] -0.048 | [2] 0.015 | [3] -0.034 | [4] -0.036 | [5] -0.002 | [6] 0.022 | [7] -0.033 | [8] -0.045 | [9] -0.056 | [10] 0.049 | [11] -0.006 | [12] -0.025 | [13] 0.009 | [14] 0.006 | [15] -0.006 | [16] -0.016 | [17] 0 | [18] 0.005 | [19] 0.009 | [20] -0.006

ABRAXAS2 (UniProt Q15018)
inactive: [1] 0.004 | [2] 0.007 | [3] 0.066 | [4] 0.079 | [5] 0.006 | [6] -0.026 | [7] -0.007 | [8] -0.018 | [9] 0.044 | [10] -0.037 | [11] -0.009 | [12] -0.009 | [13] 0.024 | [14] -0.023 | [15] 0.079 | [16] 0.089 | [17] 0.008 | [18] -0.02 | [19] -0.036 | [20] 0.044

AAR2 (UniProt Q9Y312)
inactive: [1] -0.011 | [2] 0.012 | [3] 0.007 | [4] 0.006 | [5] 0.027 | [6] -0.016 | [7] 0.014 | [8] -0.007 | [9] -0.078 | [10] 0.006 | [11] 0.007 | [12] -0.037 | [13] 0.009 | [14] -0.022 | [15] 0.013 | [16] 0.008 | [17] 0.016 | [18] -0.008 | [19] 0.02 | [20] 0.015

ABHD12 isoform 2 (UniProt Q8N2K0)
inactive: [1] -0.006 | [2] -0.069 | [3] -0.04 | [4] 0.078 | [5] -0.057 | [6] -0.095 | [7] 0.06 | [8] 0.04 | [9] 0.062 | [10] -0.063 | [11] 0.005 | [12] -0.004 | [13] 0.028 | [14] 0.058 | [15] -0.068 | [16] 0.044 | [17] -0.077 | [18] -0.025 | [19] -0.02 | [20] 0.019

Two entries drawn at random from the list so far, as already listed:
AAR2 (UniProt Q9Y312)
inactive: [1] -0.011 | [2] 0.012 | [3] 0.007 | [4] 0.006 | [5] 0.027 | [6] -0.016 | [7] 0.014 | [8] -0.007 | [9] -0.078 | [10] 0.006 | [11] 0.007 | [12] -0.037 | [13] 0.009 | [14] -0.022 | [15] 0.013 | [16] 0.008 | [17] 0.016 | [18] -0.008 | [19] 0.02 | [20] 0.015

AASDHPPT (UniProt Q9NRN7)
inactive: [1] -0.006 | [2] -0.013 | [3] -0.01 | [4] -0.041 | [5] 0.01 | [6] 0.013 | [7] 0.012 | [8] -0.003 | [9] 0 | [10] 0.017 | [11] 0.004 | [12] -0.028 | [13] -0.014 | [14] -0.009 | [15] 0.023 | [16] -0.001 | [17] 0.011 | [18] -0.01 | [19] -0.001 | [20] 0.016

Additional results

ABHD10 (UniProt Q9NUJ1)
inactive: [1] 0.02 | [2] -0.002 | [3] 0.032 | [4] 0.046 | [5] -0.007 | [6] 0.008 | [7] 0.028 | [8] -0.063 | [9] -0.043 | [10] -0.035 | [11] -0.036 | [12] 0.018 | [13] 0.029 | [14] 0 | [15] -0.024 | [16] 0.065 | [17] 0.02 | [18] 0 | [19] -0.031 | [20] 0.008

ABHD11 (UniProt Q8NFV4)
inactive: [1] 0.024 | [2] 0.033 | [3] -0.019 | [4] -0.121 | [5] 0.028 | [7] 0.081 | [8] -0.034 | [9] 0.009 | [10] 0.05 | [11] -0.001 | [12] -0.021 | [13] -0.005 | [14] -0.044 | [15] 0.079 | [16] 0.081 | [17] 0.042 | [18] -0.016 | [19] 0.04 | [20] -0.003
active: [6] 0.853

ACADVL isoform 3 (UniProt P49748)
inactive: [1] -0.095 | [2] 0.015 | [3] 0.002 | [4] -0.032 | [5] 0.103 | [6] 0.044 | [7] -0.015 | [8] -0.002 | [9] -0.009 | [10] 0.006 | [11] -0.013 | [12] 0.05 | [13] -0.007 | [14] -0.004 | [15] -0.042 | [16] 0.007 | [17] 0.002 | [18] -0.048 | [19] -0.012 | [20] 0

ABCB6 (UniProt Q9NP58)
inactive: [1] 0.008 | [2] -0.024 | [3] 0.026 | [4] -0.054 | [5] 0.027 | [6] -0.016 | [7] -0.001 | [8] -0.024 | [9] -0.059 | [10] 0.017 | [11] 0.016 | [12] 0.028 | [13] 0.026 | [14] -0.023 | [15] -0.028 | [16] -0.018 | [17] 0.024 | [18] 0.024 | [19] -0.01 | [20] -0.046

ACADS (UniProt P16219)
inactive: [1] -0.004 | [2] -0.018 | [3] -0.027 | [4] -0.026 | [5] -0.003 | [6] 0.016 | [7] -0.013 | [8] 0.008 | [9] 0.037 | [10] 0.034 | [12] -0.04 | [13] -0.002 | [14] -0.025 | [15] 0.033 | [16] -0.009 | [17] -0.018 | [18] 0.032 | [19] 0.01 | [20] 0.017
active: [11] 0.278

AARS (UniProt P49588)
inactive: [1] -0.015 | [2] 0.011 | [3] 0.008 | [4] 0 | [5] -0.01 | [6] -0.039 | [7] -0.007 | [8] -0.01 | [9] 0.008 | [10] -0.004 | [11] -0.026 | [12] -0.001 | [13] -0.015 | [14] -0.006 | [15] 0.024 | [16] 0.013 | [17] -0.009 | [18] 0.02 | [19] -0.013 | [20] 0.001

— the supplement of paper PMC10849652
